## Primary screen of a compound library

The chains behind the UniProt entries cited, without tags or fusion partners.
UniProt P9WFT3, whole entry: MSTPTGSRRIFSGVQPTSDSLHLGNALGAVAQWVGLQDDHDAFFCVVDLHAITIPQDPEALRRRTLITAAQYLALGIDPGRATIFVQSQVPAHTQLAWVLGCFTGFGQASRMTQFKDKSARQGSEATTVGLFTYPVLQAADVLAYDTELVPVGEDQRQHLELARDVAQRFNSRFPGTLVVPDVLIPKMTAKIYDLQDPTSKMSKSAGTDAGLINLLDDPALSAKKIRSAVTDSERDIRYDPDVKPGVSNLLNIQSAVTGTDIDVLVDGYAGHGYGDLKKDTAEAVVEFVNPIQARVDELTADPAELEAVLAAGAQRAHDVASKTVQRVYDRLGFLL

Data taken from ChEMBL document CHEMBL3988442, “University of Dundee, Small-Polar-MMV Screening Library” (2021).

Each number is a percent effect as filed. The record does not define 0% and 100%; most values in the screen are far below 50% and negative numbers occur (in some assays of this library far below -100). The compounds are a random part of those screened.

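Tryptophan-tRNA ligase, Mycobacterium tuberculosis (UniProt P9WFT3). Enzyme assay of tryptophanyl-tRNA synthetase; the read-out is not stated. Tested at 10 µM. Higher most likely means stronger inhibition; the record gives no direction and few retests gave an IC50. Size under these conditions: about 65,000 compounds, about 64 of them at 50% or above in at least one test.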

compound	effect
N#Cc1cccc(CNC(=O)NC2CCN(CC(F)F)CC2)c1	28.41
COC(=O)c1ccc(N2CCN(C(=O)CCCc3cn[nH]c3)CC2)cc1	-3.202
CCCN(CC(=O)N1CCNCC1)C(=O)c1cccc(Cl)c1	4.022
CC1CCCN(C(=O)c2ccn(COc3ccccc3)n2)C1 (centres unmarked)	4.275
Cc1ccc(S(=O)(=O)N2CCN(CCC#N)CC2)s1	1.419
COc1cccc(OC)c1-c1c[nH]c(C)n1	3.267
COc1ccc(S(=O)(=O)N2CCCC3(CCCN3S(C)(=O)=O)C2)cc1 (centres unmarked)	-5.197
CN(C)Cc1nc(C(C)(C)NC(=O)c2ccnn2C)no1	-1.326
Cc1noc(C)c1CN1CC2(CCN(C(=O)c3ccc[nH]3)C2)CC1=O (centres unmarked)	2.365
CC(C)S(=O)(=O)N1CCC(c2cc3n(n2)[C@@H](C(F)(F)F)C[C@@H](C)N3)C1 (some centres unmarked)	-2.996
COCCN1CCN(CC(=O)N(C)Cc2ccc(C)o2)CC1C (centres unmarked)	-3.818
COCc1ccc(C(=O)NS(=O)(=O)c2ccc3c(c2)CCC(=O)N3)cc1	-3.612
Cc1nc(C2CCCN2CCC(=O)N2CCc3ccccc32)no1 (centres unmarked)	-2.302
CSCC1CCCN(c2ncnc3oc(C)nc23)C1 (centres unmarked)	6.608
CCOc1ncccc1CNC(=O)Nc1cc(C)nn1C	-1.917
CCn1cnnc1CNC(=O)c1ccc(Cl)cc1F	0.6823
Cc1cc(C(=O)N2CCN(c3nc4c(C)cccc4s3)CC2)no1	3.352
Cn1ccc(C(=O)NCc2ccccc2Cn2ccnc2)cc1=O	-3.862
CCc1ccccc1OCCN1CC[C@@]2(O)CCNC[C@H]2C1	-1.696
O=C(CCc1ccc(=O)[nH]n1)N1CCCC(COc2ccc(F)cc2)C1 (centres unmarked)	-3.223
Cc1oc(CNC(=O)Cc2ccc3ccccc3c2)cc1C(=O)O	-0.09709
Cc1cc(NC(=O)N2CCCC2CN2CCOCC2)nn1C (centres unmarked)	-3.818
C=C(C)CN1CCC(NC(=O)Nc2ccc(F)c(C(N)=O)c2)CC1	-2.849
Cc1nnc2n1CCN(C(=O)CN1C(=O)CCCc3ccccc31)C2	9.2
COCCC(=O)N1CCn2cc(CN3CCN(C)CC3)nc2C1	-1.58
O=C(CCn1ccc2cc(Br)ccc21)NC[C@@H]1CCCN2CCCC[C@H]12	-4.51
Cc1n[nH]c(C2CN(CC(=O)NCCc3ccsc3)CCO2)n1 (centres unmarked)	-4.633
CNC(=O)c1nc(CC(=O)Nc2ccc3cc[nH]c3c2)no1	0.5663
CNc1cc(C)nc(C2CN(Cc3ccc(C)nc3)CCO2)c1 (centres unmarked)	1.589
O=C(N1CCCC1)N1CCC2(CC1)COCCN(Cc1cccnc1)C2	0.07582
Cc1nc(C)n(C2CCCN(C(=O)Cc3ccc4c(c3)CCC4)C2)n1 (centres unmarked)	3.422
Cc1nn(C)c(C)c1-c1ccc(=O)n(C(C)C(=O)NCc2ccco2)n1 (centres unmarked)	-6.332
CN(C)c1nccc(CNS(=O)(=O)c2ccc(F)c(Cl)c2)n1	-2.364
CCn1cc(Cn2cc(Cl)c(N)n2)c(C)n1	-0.6938
O=C(CS(=O)(=O)Cc1ccccc1)NC1CCCCNC1=O (centres unmarked)	10.44
CNC(=O)c1nnn(-c2ccccc2F)c1-c1ccccn1	-4.635
COCCN1CCC12CCN(C(=O)Cc1cccs1)C2 (centres unmarked)	0.7319
O=C(c1cccc(F)c1)N1C[C@@H](CN2CCCCC2)[C@@H](CO)C1	-3.153
CC(C)c1nn(C)c(N(C)C)c1CNCc1ccc2c(c1)OCCO2	2.77
CC(C)n1ccnc1C1CCCN(c2cncc(N(C)C)n2)C1 (centres unmarked)	-3.638
COc1ccc(C2CCCN2C(=O)c2cc3c([nH]c2=O)CCC3)cc1 (centres unmarked)	-4.878
CC1CCN(C(=O)c2cn(-c3cc(N4CCOCC4)ncn3)cn2)CC1	0.4691
COCCN1C[C@@H](C)[C@@]2(COCCN(C(=O)c3ccncc3)C2)C1	3.625
Cc1c[nH]c(CN2CCCCC2CCn2ccnc2C)c(C)c1=O (centres unmarked)	1.568
Cc1cccc(S(=O)(=O)NC(=O)c2ccc3c(c2)nnn3C)c1	-2.058
Cc1ccc(CN2CCC(O)(Cn3nc(-c4cccs4)oc3=O)CC2)o1	-4.776
Cc1cccc2cc(CN3CCCN4CCC[C@H]4C3)c(=O)[nH]c12	-3.763
Fc1ccc(C2(CNC3=NCCCN3)CCC2)cc1	-4.152
CN1C(=O)CO[C@H]2CN(C(=O)c3ccc4c(c3)CCCC4)C[C@@H]21	8.569
CCO[C@H]1CO[C@@]2(CCCN(S(=O)(=O)c3ccccc3)C2)C1	3.739
CCc1nnc2n1CCN(CC(=O)N(CC)C1=CCCCC1)C2	-3.333
Cc1ccccc1CN1CCNC(=O)C1CC(=O)NCC1CCCCC1 (centres unmarked)	2.999
Cc1ccc(NC(=O)N2CCOC(C(N)=O)C2)cc1C(F)(F)F (centres unmarked)	6.537
CCN1CCc2[nH]cnc2C12CCN(C(=O)CCc1cccs1)CC2	-3.725
NC(=O)N1CC(OCc2cccc3ccccc23)C1	2.017
CC(C(=O)N(C)C)S(=O)(=O)c1cc2c(cc1Cl)OCCO2 (centres unmarked)	0.3112
COc1ccc2nnc(CCC(=O)NCc3cccn3C)n2n1	1.866
COc1cccc(C(=O)N2C[C@@H](C(=O)O)[C@H](c3ccccc3C)C2)c1	17.5
Cn1nnc2c(sc3nc(N4CCOCC4)c4c(c32)CCC4)c1=O	1.23
N#CCSCCCN1CCN(C(=O)c2ccc(Cl)cc2)CC1	-0.9046
COc1ncccc1C(=O)N1CC[C@H]2C[C@@H](c3ccncn3)O[C@@H]2C1	-0.8299
Cc1cc(O)c(OCC(=O)/N=c2/[nH]c3c(s2)CCC3)cn1	0.5424
CCN(Cc1ccoc1)C(=O)C1CCN(C(=O)OC(C)(C)C)C1 (centres unmarked)	18.1
Cc1cc(F)cc(S(=O)(=O)NC(=O)CCc2cncc(F)c2)c1	-1.519
Cc1cc(C)c2ncn(CCOCCO)c(=O)c2c1	2.27
O=C(c1cnn2ccccc12)N1CCCC(OCc2ccccn2)C1 (centres unmarked)	-1.212
Cc1ccc2c(c1)SCC(=O)N2Cc1noc(C2CC2)n1	10.02
COC(=O)c1cccc(C(=O)N2CCN(c3cc(C)ccc3C)CC2)n1	2.788
CCc1nnc(CN2CCN(CC(O)c3ccccc3)CC2)o1 (centres unmarked)	-5.84
F[C@@H]1CN(Cc2ccccc2)C[C@@H]1OCc1nc2cnccc2[nH]1	5.873
c1ccc(CN2CCc3ncnc(N4CCCC4)c3CC2)nc1	-0.9161
CCN1CC(C(=O)N2CCc3cc(C(N)=O)n(C)c3C2)CCC1=O (centres unmarked)	0.9839
CC(NC(=O)c1ccc(=O)n(C)c1)c1ccccc1-n1cccn1 (centres unmarked)	2.524
Cc1nc2c(c(N3CCC(O)(Cn4ccnc4)CC3)n1)CCNCC2	3.307
COC(=O)CCC(=O)N(C/C=C/c1ccccc1)CCO	-5.933
Cc1ccc(CC2COCCN(S(=O)(=O)c3ccccc3)C2)nc1 (centres unmarked)	1.903
Cc1nc(NCc2nonc2C)cc(C(C)Cn2nc(C)c(C)c2C)n1 (centres unmarked)	-2.764
CCN1CCC(CC(=O)NCCc2nc(C)cc(C)n2)CC1	0.4989
O=S(=O)(NC1CCN(CC(F)(F)F)C1)c1cc(F)cc(F)c1 (centres unmarked)	0.7988

For reference, 4 entries once more:

For CCn1cnnc1CNC(=O)c1ccc(Cl)cc1F the result was 0.6823%.
For Cc1nnc2n1CCN(C(=O)CN1C(=O)CCCc3ccccc31)C2 the result was 9.2%.
For Cc1cc(O)c(OCC(=O)/N=c2/[nH]c3c(s2)CCC3)cn1 the result was 0.5424%.
For CC1CCCN(C(=O)c2ccn(COc3ccccc3)n2)C1 (centres unmarked) the result was 4.275%.